Experimental data taken from patent publication US7547521B2, “Heteromultimeric ion channel receptor and uses thereof” (McGill University, priority 2000, dated 2009).
Numbering of substitutions follows the chain as printed. Not every detail of the peptide structures is certain; ends, links or a residue may be inferred.

Protein sequences, listed by entry. Tags and fused reporters are not part of them. Lines headed by an entry give the natural chain unless they say otherwise; changes in a name come on top.
UniProt Q9UHC3: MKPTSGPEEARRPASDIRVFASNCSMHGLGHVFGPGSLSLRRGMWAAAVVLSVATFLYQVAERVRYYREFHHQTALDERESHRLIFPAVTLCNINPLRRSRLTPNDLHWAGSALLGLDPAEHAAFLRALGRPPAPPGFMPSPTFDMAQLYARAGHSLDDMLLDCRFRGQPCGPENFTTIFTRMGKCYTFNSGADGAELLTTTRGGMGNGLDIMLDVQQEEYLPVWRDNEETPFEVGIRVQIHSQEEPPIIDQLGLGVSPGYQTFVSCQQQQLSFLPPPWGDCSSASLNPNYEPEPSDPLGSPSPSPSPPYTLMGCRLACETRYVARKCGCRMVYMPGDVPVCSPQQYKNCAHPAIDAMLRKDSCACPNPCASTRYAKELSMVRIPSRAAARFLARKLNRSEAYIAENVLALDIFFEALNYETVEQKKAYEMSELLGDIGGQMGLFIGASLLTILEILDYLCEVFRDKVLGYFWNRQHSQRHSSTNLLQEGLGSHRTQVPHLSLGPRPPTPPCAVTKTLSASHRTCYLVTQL

Tests used:
[1] = molecular target: T1, human ASIC2S.2 (ASIC2A+3) receptors (Homo sapiens, UniProt Q16515+Q9UHC3, A14P/I85V/M358I/P13Q); assay: Two-electrode voltage clamp of proton-gated currents in Xenopus oocytes expressing human ASIC2S.2; type: cell-based
T1 construct: allowing RT-PCR amplified full length nucleic acids to be directionally subcloned into pcDNA3; expressed in transfected cells; host or cells: Xenopus laevis oocytes (nuclear injection of pcDNA3 cDNAs)
T1 sequence (Q16515 1-512): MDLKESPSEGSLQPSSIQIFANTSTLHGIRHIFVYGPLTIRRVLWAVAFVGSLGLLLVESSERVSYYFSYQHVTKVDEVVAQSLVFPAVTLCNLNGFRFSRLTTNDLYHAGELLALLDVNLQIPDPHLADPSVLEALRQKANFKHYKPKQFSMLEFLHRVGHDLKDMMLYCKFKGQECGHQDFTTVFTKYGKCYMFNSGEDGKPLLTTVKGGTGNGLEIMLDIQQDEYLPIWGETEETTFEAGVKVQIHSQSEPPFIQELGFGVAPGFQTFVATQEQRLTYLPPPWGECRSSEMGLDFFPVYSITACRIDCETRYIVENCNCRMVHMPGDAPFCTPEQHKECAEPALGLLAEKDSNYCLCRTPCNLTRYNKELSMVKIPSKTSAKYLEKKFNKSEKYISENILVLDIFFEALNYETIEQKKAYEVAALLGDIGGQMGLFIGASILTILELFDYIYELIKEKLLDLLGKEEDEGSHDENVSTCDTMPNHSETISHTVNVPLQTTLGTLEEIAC
T1 sequence (Q9UHC3 1-531 P13Q/A14P/I85V/M358I): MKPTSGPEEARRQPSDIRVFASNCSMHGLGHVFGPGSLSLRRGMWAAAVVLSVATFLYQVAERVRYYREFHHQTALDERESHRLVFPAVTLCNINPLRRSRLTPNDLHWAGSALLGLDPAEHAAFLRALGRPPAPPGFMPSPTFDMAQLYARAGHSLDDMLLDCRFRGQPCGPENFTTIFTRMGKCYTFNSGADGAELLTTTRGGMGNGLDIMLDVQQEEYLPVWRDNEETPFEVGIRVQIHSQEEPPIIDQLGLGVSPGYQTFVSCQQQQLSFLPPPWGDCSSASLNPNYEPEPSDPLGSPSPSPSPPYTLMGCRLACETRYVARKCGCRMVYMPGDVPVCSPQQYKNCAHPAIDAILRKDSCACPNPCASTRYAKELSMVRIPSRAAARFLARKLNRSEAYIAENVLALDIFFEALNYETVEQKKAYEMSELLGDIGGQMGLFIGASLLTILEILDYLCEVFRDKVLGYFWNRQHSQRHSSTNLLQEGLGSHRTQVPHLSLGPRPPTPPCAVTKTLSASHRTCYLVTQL
Procedure: According to method 1 described above, nuclei of Xenopus oocytes are injected with ASIC2A and ASIC3 cDNAs separately subcloned into pcDNA3 expression vector (1-5 ng). Control oocytes are injected with H2O. Oocytes are maintained at 18° C. in modified Barth's solution. Proton-activated currents are measured by two-electrode voltage clamp 1-3 days after injection. During voltage clamp (−60 mV/−100 mV)), oocytes are bathed in 116 mM NaCl, 2 mM KCl, 1.8 mM CaCl2, 10 mM acetic acid and 5 mM Hepes (pH 7.4 with NaOH). To determine proton-gating, bath solution is quickly switched to a solution of pH<7.4 for 10 sec, then returned to bath solution for washout. The stimulating solution is prepared by lowering the pH of the original bath solution with hydrochloric acid. The osmolality of the solutions is verified with an osmometer and corrected with mannitol or choline chloride. To document ionic selectivity, NaCl is replaced with LiCl or KCl. Current-voltage relationships are determined by stepping from a holding potential of −60 mV to potentials between −100 and +60 mV for 10 seconds before and during stimulation with low pH solution. FIGS. 1A (human) and 1B (rat) compare proton-activated currents carried by homomultimeric ASIC2A and ASIC3 receptors to the heteromultimeric ASIC-2S.2 receptors (ASIC2a+3). […] Species differences are also noteworthy. Indeed, using human subunits, both the early fast and sustained currents are strongly potentiated, while in the case of rat, the major effect appears to be on the sustained current only.
As described in example 2, voltage clamped oocytes expressing the ASIC-2S.2 channels are used to screen for molecules capable of modulating, activating or inhibiting channel activity.

[2] = molecular target: T2, rat heteromeric ASIC2S.2 (ASIC2A+3) receptors (Rattus norvegicus, UniProt O35240+Q62962); assay: Two-electrode voltage clamp of proton-gated currents in Xenopus oocytes expressing rat ASIC2S.2; type: cell-based; settings: 10 μM NPFF, pH 4 application, compared with rat homomeric ASIC3
T2 construct: allowing RT-PCR amplified full length nucleic acids to be directionally subcloned into pcDNA3; expressed in transfected cells; host or cells: Xenopus laevis oocytes (nuclear injection of pcDNA3 cDNAs)
T2 sequence (Q62962 1-512): T1 sequence (Q16515 1-512) with S132T, I444L, D471E, V479M, T503A
T2 sequence (O35240 1-533): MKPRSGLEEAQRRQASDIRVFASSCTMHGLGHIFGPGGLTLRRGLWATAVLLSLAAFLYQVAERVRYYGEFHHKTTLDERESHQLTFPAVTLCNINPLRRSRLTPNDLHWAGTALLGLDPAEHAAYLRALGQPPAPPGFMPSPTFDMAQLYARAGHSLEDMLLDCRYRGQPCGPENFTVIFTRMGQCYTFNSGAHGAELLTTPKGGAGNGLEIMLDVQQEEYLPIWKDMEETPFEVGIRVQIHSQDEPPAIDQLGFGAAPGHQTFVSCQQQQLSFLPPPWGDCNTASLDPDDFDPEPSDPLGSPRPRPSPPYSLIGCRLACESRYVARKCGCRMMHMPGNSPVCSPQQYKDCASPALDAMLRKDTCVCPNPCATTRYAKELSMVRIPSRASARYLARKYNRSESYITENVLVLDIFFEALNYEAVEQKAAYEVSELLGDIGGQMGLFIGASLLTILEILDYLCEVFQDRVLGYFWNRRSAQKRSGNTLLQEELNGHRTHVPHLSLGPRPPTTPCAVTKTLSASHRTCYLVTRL

## CC(C)C[C@H](NC(=O)[C@@H](N)Cc1ccccc1)C(=O)N[C@@H](Cc1ccccc1)C(=O)N[C@@H](CCC(N)=O)C(=O)N1CCC[C@H]1C(=O)N[C@@H](CCC(N)=O)C(=O)N[C@@H](CCCNC(=N)N)C(=O)N[C@@H](Cc1ccccc1)C(N)=O [NPFF]
[1]; 10 μM NPFF, compared with 100 μM FMRFamide, normalised to maximal control current at pH 3
  Sensitivity and maximal response to acidification (pH dose-response curve): even greater
[1]; 10 μM NPFF, pH 4 application, Xenopus oocytes
  Effect on proton-gated cationic current evoked by pH 4: potentiation of the current
[1]; Xenopus oocytes, pH 4, % of response measured in presence of 10^-8 M peptide, read-out: EC50 for potentiation of currents induced by pH 4
  EC50: 2000 nM
[1]; pH 6
  Effect on response to pH 6 stimulation: potentiated
[2]
  Effect on proton-gated cationic current evoked by pH 4: more pronounced potentiation
